Source: paper doi:10.1101/2025.06.08.658491
Results are given in words; binding and its absence hold for the method and conditions named. In cells and extracts the contact can be indirect. Some results given as binding are weak or reduced against the parent protein; the word gives no strength. For some assays here: Tags and fused reporters may be left off the sequences shown.

Amino acid sequences for entries named in this document (tags omitted).
UniProt Q969Q1: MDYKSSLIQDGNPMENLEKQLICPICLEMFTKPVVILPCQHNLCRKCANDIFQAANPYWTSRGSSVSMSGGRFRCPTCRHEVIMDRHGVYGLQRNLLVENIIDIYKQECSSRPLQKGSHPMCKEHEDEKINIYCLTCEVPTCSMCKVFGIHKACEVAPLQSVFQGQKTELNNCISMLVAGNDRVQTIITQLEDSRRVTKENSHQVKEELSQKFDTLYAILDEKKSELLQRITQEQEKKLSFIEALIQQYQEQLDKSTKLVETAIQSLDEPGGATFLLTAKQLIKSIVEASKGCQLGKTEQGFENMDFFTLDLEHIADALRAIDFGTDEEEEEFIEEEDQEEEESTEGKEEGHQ
UniProt Q38HM4: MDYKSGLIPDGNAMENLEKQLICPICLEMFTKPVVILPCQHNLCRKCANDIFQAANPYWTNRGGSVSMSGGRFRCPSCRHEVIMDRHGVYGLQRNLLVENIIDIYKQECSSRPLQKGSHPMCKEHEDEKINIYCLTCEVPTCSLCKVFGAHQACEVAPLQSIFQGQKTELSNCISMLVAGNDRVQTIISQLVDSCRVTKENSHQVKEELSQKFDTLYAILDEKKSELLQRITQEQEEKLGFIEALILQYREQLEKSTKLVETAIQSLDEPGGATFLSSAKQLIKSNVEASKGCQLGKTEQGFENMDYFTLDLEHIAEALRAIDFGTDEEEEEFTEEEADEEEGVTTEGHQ

B1: FLAG-TRIM72, transiently expressed in HEK293 cells (protein, UniProt Q6ZMU5 1-477)
chain: MSAAPGLLHQELSCPLCLQLFDAPVTAECGHSFCRACLGRVAGEPAADGTVLCPCCQAPTRPQALSTNLQLARLVEGLAQVPQGHCEEHLDPLSIYCEQDRALVCGVCASLGSHRGHRLLPAAEAHARLKTQLPQQKLQLQEACMRKEKSVAVLEHQLVEVEETVRQFRGAVGEQLGKMRVFLAALEGSLDREAERVRGEAGVALRRELGSLNSYLEQLRQMEKVLEEVADKPQTEFLMKYCLVTSRLQKILAESPPPARLDIQLPIISDDFKFQVWRKMFRALMPALEELTFDPSSAHPSLVVSSSGRRVECSEQKAPPAGEDPRQFDKAVAVVAHQQLSEGEHYWEVDVGDKPRWALGVIAAEAPRRGRLHAVPSQGLWLLGLREGKILEAHVEAKEPRALRSPERRPTRIGLYLSFGDGVLSFYDASDADALVPLFAFHERLPRPVYPFFDVCWHDKGKNAQPLLLVGPEGAEA
B2: tripartite motif-containing protein 72 (TRIM72), endogenous in C2C12 myotubes (protein, UniProt Q1XH17 1-477)
chain: MSAAPGLLRQELSCPLCLQLFDAPVTAECGHSFCRACLIRVAGEPAADGTVACPCCQAPTRPQALSTNLQLSRLVEGLAQVPQGHCEEHLDPLSIYCEQDRTLVCGVCASLGSHRGHRLLPAAEAQARLKTQLPQQKMQLQEACMRKEKTVAVLEHQLVEVEETVRQFRGAVGEQLGKMRMFLAALESSLDREAERVRGDAGVALRRELSSLNSYLEQLRQMEKVLEEVADKPQTEFLMKFCLVTSRLQKILSESPPPARLDIQLPVISDDFKFQVWKKMFRALMPALEELTFDPSSAHPSLVVSSSGRRVECSDQKAPPAGEDTRQFDKAVAVVAQQLLSQGEHYWEVEVGDKPRWALGVMAADASRRGRLHAVPSQGLWLLGLRDGKILEAHVEAKEPRALRTPERPPARIGLYLSFADGVLAFYDASNPDVLTPIFSFHERLPGPVYPIFDVCWHDKGKNAQPLLLVGPEQEQA

What was measured:
[1] = target: GFP-MuRF1, transiently expressed in HEK293 cells (UniProt Q969Q1); assay: co-IP
[2] = target: GFP-MuRF1 knock-in (endogenous MuRF1 with N-terminal GFP) in C2C12 myotubes (mouse (endogenous in C2C12)) (UniProt Q38HM4); assay: co-IP

Row | Binder | binding [1] | binding [2]
1 | B1 | binds | 
2 | B2 |  | binds
